# Data as given in PubChem BioAssay AID1259308 (NCATS, 2017).
# Screen: 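Genes whose loss raises luciferase production in HEK293 cells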 (primary screen)
# System: human HEK293 embryonic kidney cells stably expressing firefly luciferase (HEK-CMV-Luc2-Hygro)
# Reagent: single siRNA against human genes, 0.8 pmol siRNA per well
# Duration: 72 h
# Measured: 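Luciferase light (ONE-Glo) measured on one replicate plate set and viability (CellTiter-Glo) on the other, scaled to a negative control siRNA, with robust z-scores and luciferase per cell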
# Direction: total luciferase, z-score and total luciferase, % of control: higher = more reporter protein produced; luciferase per cell, z-score: higher = more reporter output per viable cell; viable cells, % of control: higher = more viable cells
# Hit rule: 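An siRNA counts as active if its total luciferase robust z-score exceeds 3; genes with two or more such siRNAs out of three were retested with fresh siRNAs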
# Calls: active = raised luciferase; inactive = no rise
# The deposit covers about 59,000 reagents; shown is a random part of them. About 1,510 of them (2.6%) were called active. 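Calls use total luciferase alone and ignore viability, so some active siRNAs may act by altering cell number.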 Entries without a mark were called inactive. Reagents against one gene are numbered here.
target,siRNA no.,"total luciferase, z-score","total luciferase, % of control","luciferase per cell, z-score","viable cells, % of control"
ALS2CL (ALS2 C-terminal like),1,-0.276,76.4,0.0702,83.8
ALS2CL (ALS2 C-terminal like),2,-0.356,74.8,-0.384,92.5
ALS2CL (ALS2 C-terminal like),3,0.064,83.2,-0.464,105
MCOLN2 (mucolipin TRP cation channel 2),1,0.0568,83,0.331,85
MCOLN2 (mucolipin TRP cation channel 2),2,-0.21,77.7,-0.243,92.6
MCOLN2 (mucolipin TRP cation channel 2),3,-1.19,58.2,-0.814,80.6
JAK3 (Janus kinase 3),1,-0.478,72.4,-0.829,101
JAK3 (Janus kinase 3),2,-0.457,72.8,-0.314,88.4
JAK3 (Janus kinase 3),3,1.15,105,0.98,90.4
SLC35D1,1,0.27,87.3,-0.026,98.2
SLC35D1,2,1.46,111,1.54,82.6
SLC35D1,3,0.443,90.7,0.191,96.4
ACP1 (acid phosphatase 1),1,-0.61,69.7,-1.01,102
ACP1 (acid phosphatase 1),2,0.665,95.1,0.0471,105
ACP1 (acid phosphatase 1),3,0.0358,82.6,-0.068,94
ZNF763 (zinc finger protein 763),1,-0.149,78.9,0.316,81.1
ZNF763 (zinc finger protein 763),2,-0.856,64.9,0.202,68.7
ZNF763 (zinc finger protein 763),3,0.908,100,1.18,81.9
SNAI2 (snail family transcriptional repressor 2),1,1.75,117,1.72,83
SNAI2 (snail family transcriptional repressor 2),2,-0.427,73.4,-0.645,97.2
SNAI2 (snail family transcriptional repressor 2),3,0.168,85.2,1.12,70.9
"PALS2 (protein associated with LIN7 2, MAGUK p55 family member)",1,-1.11,59.9,-0.0437,67.7
"PALS2 (protein associated with LIN7 2, MAGUK p55 family member)",2,1.32,108,1.75,76.3
"PALS2 (protein associated with LIN7 2, MAGUK p55 family member)",3,-1.32,55.7,-0.537,71.6
EGFL8 (EGF like domain multiple 8),1,-0.893,64.1,-0.682,85.7
EGFL8 (EGF like domain multiple 8),2,0.00426,82,-0.159,95.5
EGFL8 (EGF like domain multiple 8),3,-1.68,48.4,-1.76,86.1
LRFN2,1,0.205,86,0.352,87.6
LRFN2,2,0.554,92.9,0.647,87.5
LRFN2,3,-1.04,61.2,-0.0132,68.6
CEP20 (centrosomal protein 20),1,-0.52,71.5,-0.479,90.7
CEP20 (centrosomal protein 20),2,1.75,117,1.81,81
CEP20 (centrosomal protein 20),3,-0.579,70.4,-0.782,96.6
PAX9 (paired box 9),1,-0.345,75,-0.735,102
PAX9 (paired box 9),2,-1.25,57,-0.976,82.3
PAX9 (paired box 9),3,2.56,133,1.49,100
CYBRD1 (cytochrome b reductase 1),1,0.76,97,0.564,93.4
CYBRD1 (cytochrome b reductase 1),2,-0.068,80.5,-0.586,105
CYBRD1 (cytochrome b reductase 1),3,-1.33,55.4,-1.31,87.6
HPCAL1 (hippocalcin like 1),1,-0.491,72.1,-0.261,86.3
HPCAL1 (hippocalcin like 1),2,1.38,109,0.553,106
HPCAL1 (hippocalcin like 1),3,-0.00316,81.8,-0.252,97.7
AZU1 (azurocidin 1),1,1.03,102,0.356,104
AZU1 (azurocidin 1),2,0.67,95.2,1.03,81.2
AZU1 (azurocidin 1),3,-0.816,65.7,-0.946,94.1
FBXO44 (F-box protein 44),1,0.407,90,1.09,75.5
FBXO44 (F-box protein 44),2,2.66,135,2.39,80.3
FBXO44 (F-box protein 44),3,-1.45,53,-1.23,81.9
"ELOA3P (elongin A3, pseudogene)",1,0.185,85.6,-0.0203,96.1
"ELOA3P (elongin A3, pseudogene)",2,0.642,94.7,0.116,103
"ELOA3P (elongin A3, pseudogene)",3,4.87 (active),179,3.68,75.8
LMO1 (LIM domain only 1),1,0.353,88.9,0.307,91.6
LMO1 (LIM domain only 1),2,0.967,101,1.02,86.5
LMO1 (LIM domain only 1),3,-1.12,59.7,-1.36,95.3
CYP1A1 (cytochrome P450 family 1 subfamily A member 1),1,-1.06,60.8,-0.8,83.9
CYP1A1 (cytochrome P450 family 1 subfamily A member 1),2,-0.511,71.7,-0.383,88.7
CYP1A1 (cytochrome P450 family 1 subfamily A member 1),3,1.38,109,1.45,83.5
